# Results published in US20080033020A1, “3-Pyridinylethylbenzamide Derivatives as Fungicides” (priority 2004, published 2008).
# Some results were stated once for a whole list of compounds, not compound by compound.
# Test system: Pyrenophora teres
# Experiment: In vivo test on Pyrenophora teres (barley net blotch) on barley plants
# Conditions: dose of 330 ppm, preventive spray 24 h before contamination, grading 12 days after contamination vs control plants
row,Structure (SMILES),good (at least 50%) or total protection
1,CC(CNC(=O)c1ccccc1Br)c1ccc(Cl)nc1 (centres unmarked) [Compound 9],at least 50%
2,CC(CNC(=O)c1ccccc1I)c1ccc(Cl)nc1 (centres unmarked) [Compound 10],at least 50%
3,O=C(NCCc1c(Cl)ccnc1Cl)c1ccccc1C(F)(F)F [Compound 13],at least 50%

# Test system: Alternaria brassicae
# Experiment: In vivo test on Alternaria brassicae (leaf spot of crucifers) on radish plants
# Conditions: dose of 330 ppm or 110 ppm, preventive spray 24 h before contamination, grading 6 to 7 days after contamination vs control plants
# Description: The active ingredient tested is prepared by potter homogenisation in a concentrated suspension type formulation at 100 g/l. This suspension is then diluted with water to obtain the desired active material concentration.
# Radish plants (Pernot variety) in starter cups, sown on a 50/50 peat soil-pozzolana substrate and grown at 18-20° C., are treated at the cotyledon stage by spraying with the aqueous suspension described above.
# Plants, used as controls, are treated with an aqueous solution not containing the active material.
# After 24 hours, the plants are contaminated by spraying them with an aqueous suspension of Alternaria brassicae spores (40,000 spores per cm^3). The spores are collected from a 12 to 13 days-old culture.
# The contaminated radish plants are incubated for 6-7 days at about 18° C., under a humid atmosphere.
# Grading is carried out 6 to 7 days after the contamination, in comparison with the control plants.
# Under these conditions, good (at least 50%) or total protection is observed at a dose of 330 ppm or 110 ppm with the following compounds: 1, 2, 3, 4, 5, 6, 7, 8, 9, 10 and 11.
row,Structure (SMILES),good (at least 50%) or total protection
1,O=C(NCCc1ccc(C(F)(F)F)nc1)c1ccccc1Cl [Compound 1],at least 50%
2,Cc1ccccc1C(=O)NCCc1ccc(C(F)(F)F)nc1 [Compound 2],at least 50%
3,O=C(NCCc1ccc(C(F)(F)F)nc1)c1ccccc1Br [Compound 3],at least 50%
4,O=C(NCCc1ccc(C(F)(F)F)nc1)c1ccccc1C(F)(F)F [Compound 4],at least 50%
5,O=C(NCCc1ccc(Cl)nc1)c1ccccc1Cl [Compound 5],at least 50%
6,O=C(NCCc1ccc(Cl)nc1)c1ccccc1C(F)(F)F [Compound 6],at least 50%
7,CC(CNC(=O)c1ccccc1Cl)c1ccc(Cl)nc1 (centres unmarked) [Compound 7],at least 50%
8,Cc1ccccc1C(=O)NCC(C)c1ccc(Cl)nc1 (centres unmarked) [Compound 8],at least 50%
9,CC(CNC(=O)c1ccccc1Br)c1ccc(Cl)nc1 (centres unmarked) [Compound 9],at least 50%
10,CC(CNC(=O)c1ccccc1I)c1ccc(Cl)nc1 (centres unmarked) [Compound 10],at least 50%
11,"CC(CNC(=O)c1ccccc1C(F)(F)F)c1ccc(Cl)nc1 (centres unmarked) [Compound 11, N-[2-(6-chloro-3-pyridinyl)propyl]-2-(trifluoromethyl)benzamide]",at least 50%
